Source: PubChem BioAssay AID493205 (National Center for Advancing Translational Sciences (NCATS), 2011)
Inconclusive results, whose numbers are uncertain, are shown with a selection of clear calls. Potencies of inconclusive entries are doubtful fits and often do not repeat. The source made the active and inactive calls. Calls follow the shape of the dose curve; as a rule, active = well fitted inhibition curve with a large enough effect; inconclusive = small, poorly fitted or top-dose-only effect, or effect the other way; inactive = no such curve, though single readings can be large or run the other way.

By UniProt entry, the sequences of proteins in these tests, tags left out. Where a name states a change or a piece, a line headed by the entry shows the natural chain unless it says otherwise.
UniProt Q9NR56: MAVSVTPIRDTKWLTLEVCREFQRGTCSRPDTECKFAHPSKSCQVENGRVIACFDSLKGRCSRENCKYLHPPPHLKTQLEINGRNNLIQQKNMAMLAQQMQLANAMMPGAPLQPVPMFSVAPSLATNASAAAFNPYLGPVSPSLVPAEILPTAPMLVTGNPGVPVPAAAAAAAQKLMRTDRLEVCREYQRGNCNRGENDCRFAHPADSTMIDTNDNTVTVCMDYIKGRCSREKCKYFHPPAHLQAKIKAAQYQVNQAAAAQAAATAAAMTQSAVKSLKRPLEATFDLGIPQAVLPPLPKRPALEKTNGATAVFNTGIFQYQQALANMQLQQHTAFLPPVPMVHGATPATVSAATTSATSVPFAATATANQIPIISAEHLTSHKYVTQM

molecular target: Muscleblind-like protein 1 (Homo sapiens) (UniProt Q9NR56); assay: qHTS Assay for Inhibitors of MBNL1-poly(CUG) RNA binding: Initial hit validation in AlphaScreen assay for MBNL1-(CUG)12 binding; settings: AlphaScreen MBNL1-His / biotin-(CUG)12 binding; activity, negative = inhibition: at 57.7 µM (top of the series)
From the text: NIH Chemical Genomics Center [NCGC] NIH Molecular Libraries Probe Production Centers Network [MLPCN] MLPCN Grant: R03 MH087421-01 Assay Submitter (PI): Charles Thornton NCGC Assay Overview: Expanded CTG repeats in the 3' untranslated region of the DM protein kinase (DMPK) gene causes type I myotonic dystrophy (DM1). DM1 is a multi-systemic disease with a prevalence of 1/7000. Clinical features include myotonia, progressive muscle weakness and wasting, cardiac arrhythmia, insulin resistance, hypersomnolence, cataracts, and other symptoms. The pathogenic effect of expanded CTG repeats stems from deleterious effects of the mutant transcript. CUGexp mRNA accumulates in nuclear foci and sequesters proteins of the muscleblind family, of which MBNL1 is the most common family member in skeletal muscles. The binding interaction between MBNL1 and CUGexp tracts leads to deregulation of alternative splicing and is therefore a key molecular step in the pathogenesis of DM1. To target this binding interaction, we optimized a protein-RNA binding assay in 1536-well format for identification of small molecule inhibitors of biotinylated (CUG)12 and his-tagged MBNL1 binding. This deposition presents the initial confirmation of hits from the primary screen in an orthogonal assay of binding using AlphaScreen.
NCGC Assay Protocol Summary: This is a proximity-based binding assay with MBNL1-His and Biotin-(CUG)12 RNA. Streptavidin conjugated donor beads capture biotin labels on the MBNL-(CUG)12 complexes and up on excitation, generate singlet oxygen. Luminescent signal is generated when the donor beads are in close proximity of the nickel-coated acceptor beads, captured by the His-tags. Data were normalized to the controls for basal activity (buffer only) and 100% activity (with MBNL1-(CUG)12). The AC50 values were determined from concentration-response data modeled with the standard Hill equation Assay buffer: 20mM HEPES, 110mM KCl, 10mM NaCl, 2mM MgCl2, 2mM CaCl2, 5mM DTT, 0.1% BSA, 0.05% Tween 20 1536-well assay protocol for the MBNL1-(CUG)12 binding assay: (1) Add 2 ul/well 20nM MBNL1-His, 20nM Biotin-(CUG)12 (2) Add 23 nL compounds in DMSO solution. The final titration was 92 nM to 58 uM. (3) Add 1 ul of Nickel-coated AlphaScreen acceptor beads (6.25 ng/ul final concentration) (4) Incubate 30 min at room temperature (5) Add 1 ul of Streptavidin-conjugated AlphaScreen donor beads (6.25 ng/ul final concentration) (6) Incubate 60 min at room temperature (7) Detect the assay plate in a EnVision plate reader (PerkinElmer) with AlphaScreen protocol Keywords: mytonic dystrophy type I, DM1, muscleblind like 1, MBNL1, CUG expansion, protein-RNA binding inhibitor, high throughput screening, MLSMR, MLSCN, NIH Roadmap, qHTS and NCGC

| SMILES | Potency | activity, negative = inhibition |
| --- | --- | --- |
| COC(=O)c1cccc(NC(=O)c2ccc[n+]([O-])c2)c1 | inconclusive: 41.1 µM [inhibitor, partial curve] | – |
| COc1ccc(NC(=O)NC(C(F)(F)F)C(F)(F)F)cc1 | inactive | – |
| O=C1Cc2ccccc2C(=O)N1Cc1ccccc1 | inconclusive: 130 µM [inhibitor, partial curve, poor fit] | – |
| CNC[C@H](O)c1ccc(O)c(O)c1 | inactive | – |
| COc1ccc(CC(=O)Oc2ccc(C)cc2Br)cc1OC | active: 5.17 µM | – |
| Cc1cc(N2CCN(C)CC2)nc2ccc(NC(=S)NCCN3CCc4ccccc4C3)cc12 | inactive | – |
| C[C@@H]1O[C@@H](OC[C@H]2O[C@@H](Oc3c(-c4ccc(O)c(O)c4)oc4cc(O)cc(O)c4c3=O)[C@H](O)[C@@H](O)[C@@H]2O)[C@H](O)[C@H](O)[C@H]1O | inconclusive: 5.8 µM [activator, partial curve, poor fit] | – |
| Cc1ccc(NC2c3ncccc3C(=O)N2Cc2cccs2)cc1 (stereo not given) | active: 25.9 µM | – |
| Cc1ccc(NC(=O)Nn2cnnc2)cc1Cl | inactive | – |
| COc1ccc(CN2CCN(c3cccc(C)c3C)CC2)cc1OC | inactive | – |
| O=C1c2ccccc2C(=O)C12OC2c1cccc2ccccc12 (stereo not given) | inconclusive: 41.1 µM [inhibitor, single point] | – |
| COc1ccc(N2CCN(CC(=O)Nc3ccc(-n4cnnn4)cc3)CC2)cc1 | inconclusive: 0.0819 µM [inhibitor, full curve, poor fit] | – |
| O=c1[nH]c(Nc2ccc(F)cc2)cc2ccccc12 | active: 13 µM | – |
| C/C1=C2N=C(/C=C3N=C(/C(C)=C4\[N-]C(C)(C5N=C1C(C)(CCC(=O)NCC(C)OP(=O)([O-])O[C@H]1C(O)C(n6cnc7cc(C)c(C)cc76)O[C@@H]1CO)C5CC(N)=O)C(C)(CC(N)=O)C4CCC(N)=O)C(C)(CC(N)=O)C\3CCC(N)=O)C(C)(C)C/2CCC(N)=O.[CH2-]C1OC(n2cnc3c(N)ncnc32)C(O)C1O.[Co] (stereo not given in full) | active: 5.17 µM | – |
| CCOc1ccc2[nH]c(=O)c(C(c3nnnn3Cc3ccco3)N3CCN(C)CC3)cc2c1 (stereo not given) | inactive | – |
| O=C(Nc1ccc(Br)cc1)Nn1cnnc1 | inactive | – |
| C=CCn1c(NS(=O)(=O)c2ccccc2)c(S(=O)(=O)c2ccc(C)cc2)c2nc3ccccc3nc21 | inconclusive: 103 µM [inhibitor, partial curve] | – |
| COc1ccc(NC(=O)Nn2cnnc2)cc1OC | inactive | – |
| COc1ccc(C(c2c(C)[nH]n(-c3ccccc3)c2=O)c2c(C)[nH]n(-c3ccccc3)c2=O)cc1OC | inconclusive: 65.1 µM [inhibitor, partial curve] | – |
| O=C(NCCCN1CCCCCC1)c1ccc(CS(=O)(=O)Cc2ccccc2F)o1 | inactive | – |

| SMILES | Potency | activity, negative = inhibition |
| --- | --- | --- |
| CCOC(=O)C1(CCOc2ccccc2)CCN(Cc2ccc(-n3cccn3)cc2)CC1 | inconclusive: 7.3 µM [inhibitor, full curve] | – |
| Cc1ccc(NC(=O)CSc2ncc(S(=O)(=O)c3ccccc3)c(=O)[nH]2)cc1C | inconclusive: 103 µM [inhibitor, partial curve] | – |
| OC1(c2ccc(Cl)cc2)CCN(Cc2cn[nH]c2-c2ccccc2)CC1 | inactive | – |
| CCCCC[C@H](O)/C=C/[C@@H]1[C@@H](C/C=C\CCCC(=O)OC)[C@@H](O)C[C@H]1O | active: 10.3 µM | – |
| O=C(CCO)c1ccc(O)cc1 | inconclusive: 41.1 µM [inhibitor, partial curve] | – |
| O=C1c2c(O)ccc(O)c2C(=O)c2c(NCCNCCO)ccc(NCCNCCO)c21 | inconclusive: 9.86 µM [inhibitor, partial curve, poor fit] | inconclusive: -66.4% [inhibitor] |
| NC[C@H](O)c1ccc(O)c(O)c1 | inconclusive: 2.59 µM [inhibitor, full curve, poor fit] | – |
| CCOC(=O)CCCCC(=O)c1[nH]c(=O)[nH]c1CN1CCOCC1 | active: 0.919 µM | – |
| CCOC(=O)CCCCC(=O)c1[nH]c(=O)[nH]c1Cn1ccnc1 | inconclusive: 10.3 µM [inhibitor, full curve, poor fit] | – |
| NC(=NCc1ccc2c(c1)OCO2)NC(=O)c1ccccc1 | active: 13 µM | – |
| Cc1ccc(C(=O)NCCN2C3=NC[C@H](C(C)C)N3C[C@H]2Cc2ccc(O)cc2)cc1Br | inconclusive: 163 µM [inhibitor, partial curve, poor fit] | – |
| COc1ccc(Cc2n[nH]c(=S)n2NC(=O)Nc2ccc(Cl)c(Cl)c2)cc1 | inactive | – |
| CCOC(=O)CCCCC(=O)c1[nH]c(=O)[nH]c1CSc1nnc2c3ccccc3n(C(C)C)c2n1 | active: 3.66 µM | – |
| COc1ccccc1NC(=O)Nc1ccnn1Cc1cccs1 | active: 0.651 µM | – |
| Cn1nccc1NC(=O)Nc1cccc(Cl)c1 | inconclusive: 1.16 µM [activator, full curve, poor fit] | – |
| CC(=O)Nc1nc(-c2ccc(Cl)cc2)nc(C)c1C(C)=O | inconclusive: 81.9 µM [inhibitor, single point] | – |
| CC(Sc1ncc(C#N)c(N)n1)C(=O)Nc1ccccc1 (stereo not given) | inconclusive: 41.1 µM [inhibitor, partial curve] | – |
| O=C(O)CCCCCCCC(=O)O | inconclusive: 4.11 µM [inhibitor, partial curve, poor fit] | – |
| CCCN1C[C@H](CSC)C[C@@H]2c3cccc4[nH]cc(c34)C[C@H]21 | inactive | – |

Some of the entries above, set out differently.
SMILES | Potency | activity, negative = inhibition
CCOC(=O)CCCCC(=O)c1[nH]c(=O)[nH]c1CSc1nnc2c3ccccc3n(C(C)C)c2n1 | active: 3.66 µM | –
COc1ccccc1NC(=O)Nc1ccnn1Cc1cccs1 | active: 0.651 µM | –
